# According to PubChem BioAssay AID1487 (National Center for Advancing Translational Sciences (NCATS), 2009):
# The list shows a part of the results. Further columns of the screen follow, without active or inactive calls. The list favours compounds with an active or inconclusive main result. Words in brackets tell the shape of the fitted curve; partial curves, single points and poor fits give uncertain potencies.
# Assay: qHTS Assay for Modulators of Lamin A Splicing
# Settings: HeLa LMNA splicing GFP/RFP minigene ratio, 48 h
# Outline: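 S3 HeLa stable clones carrying a lamin A-EGFP splicing minigene plus DsRed2 were seeded at 600 cells/well in Opti-MEM with 2% FBS, pin-dosed and incubated 48 h at 37°C. Acumen cytometry (488 nm) gave the GFP/RFP total-intensity ratio.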
# [1] = measured here: RFP viability control channel
# [2] = measured here: GFP splicing reporter channel
SMILES,AC50 [1],AC50 [2]
Cc1cc2n(n1)SC(Nc1ccc(F)c(Cl)c1)N2 (centres undefined),"31.6 µM [rising, single point]",
Cc1nn(-c2nc3ccccc3[nH]2)c(N)c1-c1ccccc1,"17.8 µM [rising, single point]",
CCCNC(=S)N1CCC(NC(=O)C23CC4CC(CC(C4)C2)C3)CC1,"17.8 µM [rising, partial curve, poor fit]",
CC1Cc2ccccc2N1S(=O)(=O)c1cccc(C(=O)NC2CC2)c1 (centres undefined),"17.8 µM [rising, single point]",
O=C(CSc1nc2nc(-c3cccs3)cc(C(F)(F)F)c2c(=O)[nH]1)Nc1c(F)c(F)c(F)c(F)c1F,,"2.82 µM [falling, single point]"
CN(C)c1ccc(NC(=O)Cn2ncn3c(cc4ccccc43)c2=O)cc1,"10 µM [rising, partial curve, poor fit]",
O=C(CO/N=C/c1ccc(OC(F)F)cc1)NCc1ccc(F)cc1,"12.6 µM [rising, partial curve, poor fit]",
Cc1[nH]c2ccccc2c1C(=O)CSc1nc2cc(S(=O)(=O)N3CCCCC3)ccc2o1,"5.01 µM [rising, full curve]","2.51 µM [rising, full curve]"
Cc1ccc(N(CC2=NCCN2)c2cccc(O)c2)cc1,"5.01 µM [rising, partial curve, poor fit]","6.31 µM [falling, partial curve, poor fit]"
O=C(N/C(=C\c1ccc(Cl)cc1)C(=O)N1CCOCC1)c1ccc([N+](=O)[O-])cc1,"4.47e-05 µM [rising, full curve]",
CC(=O)NC(NC(=S)Nc1ccc(N=Nc2ccccc2C)cc1C)C(Cl)(Cl)Cl (centres undefined),"14.1 µM [falling, partial curve]","14.1 µM [falling, single point]"
O=C(NCCCN1CCOCC1)c1ccc(CNS(=O)(=O)c2ccc(F)cc2)cc1,"14.1 µM [rising, single point]",
Cc1ccccc1Cn1nnc(C(=O)Nc2cccc(C)c2C)c1N,,"15.8 µM [falling, single point]"
Cc1ccc(OCc2nnc(SCC(=O)Nc3cccc4ccccc34)n2-c2ccccc2)cc1,"25.1 µM [rising, single point]","15.8 µM [rising, single point]"
Cc1ccc(S(=O)(=O)NCCC(=O)Nc2ccc(Cl)c(Cl)c2)cc1,"14.1 µM [rising, partial curve]","11.2 µM [rising, single point]"
CCN(CC)c1ccc2c(c1)CCCN2,"22.4 µM [rising, single point]","22.4 µM [rising, single point]"
CCOc1ccc(/C=C/C(=O)Nc2ccc(N3CCOCC3)cc2)cc1,"35.5 µM [falling, single point]","25.1 µM [falling, single point]"
CC(C)CSc1n[nH]c(N)n1,,"0.447 µM [rising, partial curve, poor fit]"
O=C(c1noc2c1CCc1ccccc1-2)N1CCCc2ccccc21,"35.5 µM [rising, single point]","11.2 µM [rising, single point]"
CC1CCCC(C)N1NC(=O)c1cccc(S(=O)(=O)N2CCc3ccccc32)c1 (centres undefined),"14.1 µM [rising, single point]",
Cc1ccc(NC(=O)OCC(F)(F)C(F)F)cc1NC(=O)OCC(F)(F)C(F)F,"3.16 µM [rising, full curve, poor fit]",
COc1ccc(-c2csc(/C(C#N)=C\c3ccc(OC)c([N+](=O)[O-])c3)n2)cc1,"0.141 µM [rising, full curve, poor fit]","0.251 µM [rising, full curve, poor fit]"
Cc1ccc(C)c(NS(=O)(=O)c2cc(C(=O)Nc3cccc(N(C)S(C)(=O)=O)c3)ccc2C)c1,"15.8 µM [rising, partial curve]",
COc1ccc(/C=C/C(=O)C2CC2)cc1Cn1nc(C)c([N+](=O)[O-])c1C,,"12.6 µM [falling, partial curve, poor fit]"
CC(C)CC(CO)N1CCN(C(=O)c2cccc(C(F)(F)F)c2)CCC1=O (centres undefined),"20 µM [rising, single point]",
O=C(Nc1ccc2snnc2c1)Nc1cccc2ccccc12,"11.2 µM [rising, single point]",
Cc1ccc(CNC(=O)c2c(Nc3ccccc3C)sc(C(=O)c3ccc(F)cc3)c2N)cc1,"3.16 µM [falling, partial curve]","8.91 µM [falling, single point]"
Cc1sc(NC(=O)CCCC(=O)O)c(C(N)=O)c1-c1ccccc1,"8.91 µM [falling, partial curve, poor fit]",

# Grouped by structure: those above with two or more sulfur atoms
SMILES,AC50 [1],AC50 [2]
O=C(CSc1nc2nc(-c3cccs3)cc(C(F)(F)F)c2c(=O)[nH]1)Nc1c(F)c(F)c(F)c(F)c1F,,"2.82 µM [falling, single point]"
Cc1[nH]c2ccccc2c1C(=O)CSc1nc2cc(S(=O)(=O)N3CCCCC3)ccc2o1,"5.01 µM [rising, full curve]","2.51 µM [rising, full curve]"
Cc1ccc(C)c(NS(=O)(=O)c2cc(C(=O)Nc3cccc(N(C)S(C)(=O)=O)c3)ccc2C)c1,"15.8 µM [rising, partial curve]",

# The list goes on.

SMILES,AC50 [1],AC50 [2]
COC(=O)c1cn(NC(=O)Cc2ccc(OC)c(OC)c2)c(=O)c2ccccc12,"3.98 µM [falling, single point]","6.31 µM [falling, single point]"
O=[N+]([O-])c1ccc(-c2cnc(SCc3ccccc3Cl)[nH]2)cc1,"15.8 µM [falling, single point]","12.6 µM [falling, single point]"
Cc1ccc(CNC(=O)c2c(Nc3c(C)cccc3C)sc(C(=O)c3ccccc3)c2N)cc1,"11.2 µM [falling, partial curve]","10 µM [falling, partial curve]"
C=CCOc1cccc(/C=C2\C(=O)N(Cc3ccc(C)cc3)C(C)=C2C(=O)OC)c1,"17.8 µM [rising, partial curve]",
O=C(Nc1nc2ccc([N+](=O)[O-])cc2s1)c1c(F)cccc1F,"0.01 µM [falling, full curve, poor fit]",
O=C(N/N=C/c1ccccc1Cl)c1[nH]c2ccc(Br)cc2c1-c1ccccc1,"0.562 µM [rising, full curve]",
O=C1c2cccc(OCC(=O)N3N=C(c4cccs4)CC3c3ccc(F)cc3)c2CCN1Cc1cccnc1 (centres undefined),"14.1 µM [rising, partial curve, poor fit]",
COc1ccc(CCNC(=O)c2ccc(CNS(=O)(=O)c3cccc(Cl)c3)cc2)cc1OC,"35.5 µM [rising, single point]",
COc1ccc(CCN2C(=O)CS/C2=N\NC(=O)c2ccc(C(C)(C)C)cc2)cc1OC,"11.2 µM [rising, partial curve]",
Cc1ccccc1-c1ccc2ncnc(-n3ccnc3)c2c1,"2 µM [falling, full curve]","1.41 µM [falling, full curve]"
O=[N+]([O-])c1nn(-c2ccccc2)n(O)c1=NCCc1ccccc1,"20 µM [rising, partial curve]","22.4 µM [rising, single point]"
COc1ccc(-c2nc3sc(CCNC(=O)C(=O)Nc4ccccc4C#N)c(C)n3n2)cc1,"22.4 µM [falling, partial curve, poor fit]",
CCC1C/C(=C/c2cccs2)C(=O)/C(=C/c2cccs2)C1 (centres undefined),"12.6 µM [rising, single point]",
S=C1NC2(CCCCC2)NN1c1ccccc1,,"3.98 µM [rising, full curve, poor fit]"
COc1ccc(/C=C/C(=O)Nc2ccc(-n3nncc3-c3ccccc3)cc2)cc1OC,"25.1 µM [rising, single point]",
O=c1cc(/C=C/c2cccs2)[nH]c2ccccc12,"35.5 µM [rising, single point]",
Cc1cccc(-n2c(SCC(=O)Nc3ccc(C)c(C)c3)nc3n[nH]c(C)c3c2=N)c1,,"0.00316 µM [rising, full curve, poor fit]"
c1ccc(-c2cccc(-c3ccccn3)n2)nc1,"5.62 µM [rising, single point]",
O=[N+]([O-])c1ccc(NC(=S)NCCc2ccccc2)cc1,"31.6 µM [rising, single point]","14.1 µM [rising, partial curve]"
Cc1ccc(NC(=O)c2ccc(C)c(S(=O)(=O)N3CCCCCC3)c2)cc1,"35.5 µM [falling, single point]","35.5 µM [falling, single point]"
COc1ccc2c(Cl)c(C(=O)NC3CCS(=O)(=O)C3)sc2c1 (centres undefined),,"1.12 µM [rising, partial curve, poor fit]"
O=c1[nH]nc(Cc2ccc(Cl)cc2Cl)c2ccccc12,"14.1 µM [rising, partial curve]","8.91 µM [rising, partial curve]"
O=C(CSc1nc2ccccc2n1CCc1ccccc1)NC1CC1,,"2 µM [falling, partial curve, poor fit]"
O=C(/C=C/c1ccc2c(c1)OCO2)Nc1ccc(Cl)cn1,"14.1 µM [rising, partial curve, poor fit]","15.8 µM [rising, partial curve, poor fit]"
O=C1CCC(/C=C/c2ccccc2)=NN1Cc1ccccc1,,"22.4 µM [falling, partial curve]"
CCCCc1nn2c(=O)cc(COC(=O)CNC(=O)COc3ccc(C)cc3)nc2s1,,"0.0251 µM [falling, full curve, poor fit]"
CCS(=O)(=O)N1Cc2ccccc2CC1C(=O)Nc1ncc(C)s1 (centres undefined),,"0.00501 µM [falling, full curve, poor fit]"

# Some of the entries so far, with bars between the fields:
SMILES | AC50 [1] | AC50 [2]
Cc1ccc(CNC(=O)c2c(Nc3c(C)cccc3C)sc(C(=O)c3ccccc3)c2N)cc1 | 11.2 µM [falling, partial curve] | 10 µM [falling, partial curve]
C=CCOc1cccc(/C=C2\C(=O)N(Cc3ccc(C)cc3)C(C)=C2C(=O)OC)c1 | 17.8 µM [rising, partial curve] | 
